PubChem BioAssay AID1053208 | Peter MacCallum Cancer Centre | 2014

- Test: 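Find knock-downs that sensitise mouse osteosarcoma cells to doxorubicin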 (primary screen)
- System: mouse osteosarcoma cells, early-passage culture from an engineered mouse model of fibroblastic bone tumour
- Reagents: siRNA pool against mouse genes, 40 nM
- Timing: about 120 h (48 h before drug, then 72 h with drug)
- Challenge: doxorubicin 100 nM for 72 h, roughly 30-40% inhibitory dose
- Measured: 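Viability read as ATP luminescence after 72 h of 100 nM doxorubicin or none, duplicate wells averaged, scaled to non-targeting siRNA, then expressed as robust z-scores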
- Reading the numbers: viability z-score with doxorubicin and doxorubicin viability vs non-targeting: higher = more viable cells under doxorubicin; viability z-score without drug: higher = more viable cells with knock-down alone; z-score of drug to no-drug ratio: higher = less drug sensitisation by knock-down
- Rule for the call: 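Called active if knock-down leaves viability unchanged without drug (z within -2 to 2) but lowers it with doxorubicin (z at or under -2)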
The deposit covers about 17,000 reagents; below is a random part of them. Over the whole deposit, 788 (4.7%) were called active. 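Calls rest on z-score classes alone; an extra cut-off of viability at most 70% of control was not applied to them.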 The numbers tell different reagents against one gene apart.

no.	gene	pool no.	combined z-score class	viability z-score with doxorubicin	viability z-score without drug	z-score of drug to no-drug ratio	doxorubicin viability vs non-targeting	Outcome
1	Zfp276	1	no change with or without drug	-1.69	0.17	-1.8	0.79	inactive
2	Rab13	1	low cell count with doxorubicin only	-2.02	-0.51	-1.69	0.76	active
3	Cmtr1	1	high cell count with doxorubicin only	3.15	1.18	2.47	1.22	inactive
4	Ripk2	1	high cell count without drug only	0.67	2.19	-0.56	1	inactive
5	Chek1	1	no change with or without drug	-0.67	-1.52	0.45	0.88	inactive
6	Klf15	1	no change with or without drug	0.34	0.67	0	0.97	inactive
7	Tsc2	1	high cell count without drug only	0.11	2.36	-1.24	0.95	inactive
8	Ppp1cc	1	no change with or without drug	0.45	-0.17	0.67	0.98	inactive
9	Ttk	1	low cell count with and without drug	-4.72	-2.53	-3.71	0.52	inactive
10	Pla1a	1	no change with or without drug	0.56	0.34	0.45	0.99	inactive
11	Pomgnt2	1	no change with or without drug	-0.79	-0.51	-0.34	0.87	inactive
12	Dnah14	1	no change with or without drug	0.45	-0.34	0.79	0.98	inactive
13	Rhobtb2	1	no change with or without drug	-0.22	-0.84	0.45	0.92	inactive
14	Clic5	1	no change with or without drug	-0.11	-0.51	0.34	0.93	inactive
15	Angptl4	1	low cell count with and without drug	-2.7	-2.7	-1.01	0.7	inactive
16	Foxj3	1	no change with or without drug	0	-0.17	0.22	0.94	inactive
17	Il18bp	1	no change with or without drug	-0.9	-1.69	0.34	0.86	inactive
18	Or5m13b	1	no change with or without drug	-0.45	0.84	-0.9	0.9	inactive
19	Csnk1g3	1	low cell count with doxorubicin only	-2.47	-1.52	-1.57	0.72	active
20	Csnk1g3	2	no change with or without drug	-0.67	1.18	-1.35	0.88	inactive

Entries listed so far whose target name begins with R or r (3):
gene	pool no.	combined z-score class	viability z-score with doxorubicin	viability z-score without drug	z-score of drug to no-drug ratio	doxorubicin viability vs non-targeting	Outcome
Rab13	1	low cell count with doxorubicin only	-2.02	-0.51	-1.69	0.76	active
Ripk2	1	high cell count without drug only	0.67	2.19	-0.56	1	inactive
Rhobtb2	1	no change with or without drug	-0.22	-0.84	0.45	0.92	inactive

The listing continues:
no.	gene	pool no.	combined z-score class	viability z-score with doxorubicin	viability z-score without drug	z-score of drug to no-drug ratio	doxorubicin viability vs non-targeting	Outcome
21	Pcgf3	1	no change with or without drug	-0.67	0.17	-0.67	0.88	inactive
22	Mrps31	1	no change with or without drug	0.45	-0.84	1.24	0.98	inactive
23	Hepacam	1	no change with or without drug	0	-0.17	0.22	0.94	inactive
24	Tchp	1	no change with or without drug	0.22	-0.51	0.67	0.96	inactive
25	Arfgap1	1	low cell count with and without drug	-3.26	-2.7	-1.8	0.65	inactive
26	Zfp574	1	no change with or without drug	0	0.17	0	0.94	inactive
27	Itgb5	1	low cell count with doxorubicin only	-2.14	-1.18	-1.46	0.75	active
28	Cdc42bpb	1	no change with or without drug	0.9	0.67	0.56	1.02	inactive
29	Cdx4	1	no change with or without drug	0.22	1.01	-0.34	0.96	inactive
30	Abhd4	1	no change with or without drug	0.45	-0.17	0.67	0.98	inactive
31	Mal	1	low cell count with and without drug	-3.15	-2.53	-1.8	0.66	inactive
32	Max	1	no change with or without drug	0	-0.84	0.67	0.94	inactive
33	Dnali1	1	high cell count without drug only	0.22	2.02	-0.9	0.96	inactive
34	Rgr	1	no change with or without drug	-0.11	-0.34	0.22	0.93	inactive
35	Stat5b	1	no change with or without drug	-0.9	-0.51	-0.56	0.86	inactive
36	Batf2	1	no change with or without drug	-1.35	-0.51	-1.01	0.82	inactive
37	Scgb2b27	1	no change with or without drug	-0.56	-0.17	-0.34	0.89	inactive
38	Krt16	1	no change with or without drug	-0.22	-0.51	0.22	0.92	inactive
39	Cacna1h	1	no change with or without drug	0.9	-1.18	2.02	1.02	inactive
40	Ash2l	1	no change with or without drug	-1.91	-0.84	-1.35	0.77	inactive
41	Nans	1	high cell count with doxorubicin only	2.81	1.35	2.02	1.19	inactive
42	Ccdc88b	1	no change with or without drug	0	-0.51	0.45	0.94	inactive
43	Ube2s	1	high cell count without drug only	0.67	2.19	-0.56	1	inactive
44	Lsm2	1	no change with or without drug	-0.9	-0.84	-0.22	0.86	inactive
45	Atp7b	1	no change with or without drug	-0.34	1.18	-1.01	0.91	inactive
46	F13a1	1	no change with or without drug	0.22	0.17	0.22	0.96	inactive
47	Prss1	1	no change with or without drug	-0.22	1.69	-1.12	0.92	inactive
48	Xrcc4	1	no change with or without drug	-0.11	0.34	-0.22	0.93	inactive
49	Htr1f	1	no change with or without drug	1.35	-0.34	1.8	1.06	inactive
50	Ctnnbl1	1	no change with or without drug	1.46	-0.51	2.02	1.07	inactive
